Experimental data reported in patent US20210206866A1 (EUCURE BEIJING BIOPHARMA, published 2021).
Results are given in words; binding and its absence hold for the method and conditions named. Some entries that bind do so weakly or less than the wild type. For some assays here: Tags and fused reporters may be left off the sequences shown.

T1: Human OX40 protein (hOX40-His) (human, UniProt P43489 29-214)
T1 construct: Soluble analyte in the SPR assay; also called His-tagged human OX40; not shown: His tag
T1 sequence: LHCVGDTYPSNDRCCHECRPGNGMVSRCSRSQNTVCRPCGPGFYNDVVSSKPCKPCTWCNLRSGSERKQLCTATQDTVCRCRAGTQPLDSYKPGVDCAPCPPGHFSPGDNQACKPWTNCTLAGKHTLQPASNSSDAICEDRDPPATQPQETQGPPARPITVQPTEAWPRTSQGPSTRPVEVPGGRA

T2: rhesus macaque OX40 on transfected CHO cells (rhesus macaque)
T2 sequence: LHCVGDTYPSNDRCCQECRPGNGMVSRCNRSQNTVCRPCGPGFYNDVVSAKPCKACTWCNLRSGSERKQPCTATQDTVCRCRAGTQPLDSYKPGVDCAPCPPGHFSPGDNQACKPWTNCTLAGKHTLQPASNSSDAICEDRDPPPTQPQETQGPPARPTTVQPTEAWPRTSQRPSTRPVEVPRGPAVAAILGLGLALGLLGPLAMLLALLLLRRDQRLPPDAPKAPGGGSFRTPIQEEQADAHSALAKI


Assays:
[1] = target: T1, Human OX40 protein (hOX40-His); assay: SPR (Biacore T200); antibody captured on a Protein A chip, hOX40-His injected as analyte
[2] = target: T2, rhesus macaque OX40 on transfected CHO cells (rhesus macaque); assay: flow cytometry on CHO cells transfected with rhesus macaque OX40; antibody at 1 ug/ml

binding [1]	binding [2]	Binder
binds		9H3-mHvKv-IgG1 (antibody, V domains shown, Chimeric: mouse 9H3 variable domains with human IgG1 constant domains (CL, CH1, CH2, CH3); also called 9H3 chimeric antibody; chimeric anti-hOX40 antibody) VH: QVQLKQSGPGLVQPSQSLSITCTVSGFSLTSYGVLWVRQPPGKGLEWLGVIWSGGSTDYNAAFISRLSISKDNSKSQVFFKMNSLQADDTAIYYCAREEFGYWGQGTLVTVSA VL: DIQMTQTTSSLSASLGDRVTISCRASQDINNYLNWYQQKPDGTVKLLIYYTSRLHSGVPSRFSGSGSGTDYSLTISNLEQEDIATYFCQQTNTLPWTFGGGTKLEIK
	binds	mouse anti-hOX40 antibody 07-9H3 (antibody, V domains shown, Mouse IgG purified from ascites fluid) VH: QVQLKQSGPGLVQPSQSLSITCTVSGFSLTSYGVLWVRQPPGKGLEWLGVIWSGGSTDYNAAFISRLSISKDNSKSQVFFKMNSLQADDTAIYYCAREEFGYWGQGTLVTVSA VL: DIQMTQTTSSLSASLGDRVTISCRASQDINNYLNWYQQKPDGTVKLLIYYTSRLHSGVPSRFSGSGSGTDYSLTISNLEQEDIATYFCQQTNTLPWTFGGGTKLEIK
